# From PMC10630452, “The tumor-enriched small molecule gambogic amide suppresses glioma by targeting WDR1-dependent cytoskeleton remodeling” (Signal Transduction and Targeted Therapy, 2023)
# Sequences of proteins named here, by UniProt entry; tags and fusion partners are left off.
# UniProt P23528: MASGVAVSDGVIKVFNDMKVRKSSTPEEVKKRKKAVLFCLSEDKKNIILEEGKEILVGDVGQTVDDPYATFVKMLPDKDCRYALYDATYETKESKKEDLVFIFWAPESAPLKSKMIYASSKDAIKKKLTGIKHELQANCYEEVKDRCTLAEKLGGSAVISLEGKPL
# UniProt P35579: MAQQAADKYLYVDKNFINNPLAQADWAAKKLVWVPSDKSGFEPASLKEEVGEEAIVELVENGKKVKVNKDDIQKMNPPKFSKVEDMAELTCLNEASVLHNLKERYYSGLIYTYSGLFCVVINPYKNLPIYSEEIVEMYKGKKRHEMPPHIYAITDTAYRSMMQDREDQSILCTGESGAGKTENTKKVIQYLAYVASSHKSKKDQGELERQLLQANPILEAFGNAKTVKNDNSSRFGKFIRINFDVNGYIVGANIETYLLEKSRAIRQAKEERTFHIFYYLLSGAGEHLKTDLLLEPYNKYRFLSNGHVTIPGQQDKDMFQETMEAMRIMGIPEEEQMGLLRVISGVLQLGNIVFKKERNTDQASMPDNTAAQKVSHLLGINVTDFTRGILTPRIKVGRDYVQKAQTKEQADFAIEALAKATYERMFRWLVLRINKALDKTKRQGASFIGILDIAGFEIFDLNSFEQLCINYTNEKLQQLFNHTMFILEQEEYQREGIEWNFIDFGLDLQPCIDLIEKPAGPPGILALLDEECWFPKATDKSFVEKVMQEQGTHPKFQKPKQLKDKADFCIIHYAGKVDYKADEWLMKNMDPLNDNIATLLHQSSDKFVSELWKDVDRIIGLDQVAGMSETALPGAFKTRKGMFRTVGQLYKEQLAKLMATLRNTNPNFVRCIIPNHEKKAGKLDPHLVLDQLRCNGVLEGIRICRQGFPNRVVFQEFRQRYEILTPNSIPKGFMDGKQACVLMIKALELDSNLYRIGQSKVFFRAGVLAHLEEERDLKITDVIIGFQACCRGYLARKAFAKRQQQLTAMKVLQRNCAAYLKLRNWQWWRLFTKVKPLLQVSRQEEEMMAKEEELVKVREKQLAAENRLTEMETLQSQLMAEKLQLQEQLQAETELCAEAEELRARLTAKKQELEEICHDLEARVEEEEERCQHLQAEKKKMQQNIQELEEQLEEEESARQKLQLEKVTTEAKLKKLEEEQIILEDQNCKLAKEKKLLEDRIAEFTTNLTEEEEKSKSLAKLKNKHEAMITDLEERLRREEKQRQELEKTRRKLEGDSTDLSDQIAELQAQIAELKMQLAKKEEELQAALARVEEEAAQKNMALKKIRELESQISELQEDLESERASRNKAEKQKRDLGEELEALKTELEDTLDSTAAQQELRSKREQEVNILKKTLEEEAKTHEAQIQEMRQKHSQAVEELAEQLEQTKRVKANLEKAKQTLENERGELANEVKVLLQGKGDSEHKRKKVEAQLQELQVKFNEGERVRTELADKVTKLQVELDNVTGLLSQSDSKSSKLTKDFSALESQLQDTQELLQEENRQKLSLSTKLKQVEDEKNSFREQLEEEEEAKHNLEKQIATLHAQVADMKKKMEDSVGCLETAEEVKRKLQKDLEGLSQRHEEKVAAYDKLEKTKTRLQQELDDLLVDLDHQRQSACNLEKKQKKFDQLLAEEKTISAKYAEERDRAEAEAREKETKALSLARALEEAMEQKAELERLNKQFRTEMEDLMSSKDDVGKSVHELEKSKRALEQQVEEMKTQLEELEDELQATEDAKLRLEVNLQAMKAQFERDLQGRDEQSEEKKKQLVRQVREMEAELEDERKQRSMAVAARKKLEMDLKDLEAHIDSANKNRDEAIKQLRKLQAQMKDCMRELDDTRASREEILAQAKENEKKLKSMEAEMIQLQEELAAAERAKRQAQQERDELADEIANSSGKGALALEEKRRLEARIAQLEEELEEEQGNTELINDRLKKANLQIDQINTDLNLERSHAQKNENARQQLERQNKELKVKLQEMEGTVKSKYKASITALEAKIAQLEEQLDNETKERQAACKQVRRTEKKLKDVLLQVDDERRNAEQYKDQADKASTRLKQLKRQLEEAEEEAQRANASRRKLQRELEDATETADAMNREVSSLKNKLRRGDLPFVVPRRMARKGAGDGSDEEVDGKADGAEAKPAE
# Results are given in words; binding and its absence hold for the method and conditions named. Binding seen in cells or lysates may run through a third protein. Some entries that bind do so weakly or less than the wild type.
# Molecular target: T1, WD repeat domain 1 (WDR1) (human (in T2-4 patient-derived glioma cells)) (UniProt O75083)
# T1 sequence: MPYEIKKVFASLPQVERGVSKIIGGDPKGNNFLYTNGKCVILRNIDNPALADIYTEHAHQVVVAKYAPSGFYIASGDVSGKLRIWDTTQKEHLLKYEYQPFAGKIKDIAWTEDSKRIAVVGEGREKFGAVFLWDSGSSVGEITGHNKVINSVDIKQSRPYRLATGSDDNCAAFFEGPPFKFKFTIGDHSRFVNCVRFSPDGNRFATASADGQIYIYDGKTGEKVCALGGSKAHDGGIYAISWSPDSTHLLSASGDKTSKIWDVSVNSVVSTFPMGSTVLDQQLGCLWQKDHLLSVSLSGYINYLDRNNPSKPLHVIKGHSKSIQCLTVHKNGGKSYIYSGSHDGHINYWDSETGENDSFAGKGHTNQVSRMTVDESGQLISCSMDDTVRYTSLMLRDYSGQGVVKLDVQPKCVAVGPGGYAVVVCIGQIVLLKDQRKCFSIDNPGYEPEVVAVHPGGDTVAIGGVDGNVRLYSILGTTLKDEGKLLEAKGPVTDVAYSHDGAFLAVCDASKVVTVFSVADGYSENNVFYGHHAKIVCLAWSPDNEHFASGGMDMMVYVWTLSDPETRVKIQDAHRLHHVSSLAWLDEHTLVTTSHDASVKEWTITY
# Assay: co-IP; IP of WDR1 from T2-4 cells and western blot of the bound proteins ('in vitro IP experiment'); treated with different concentrations of GA-amide
row,binding,Substance
1,binds,Cofilin (from UniProt P23528 1-166)
2,binds,myosin heavy chain 9 (MYH9) (from UniProt P35579 1-1960)
